Measured data: PubChem BioAssay AID743454 (Peter MacCallum Cancer Centre, 2014)
The whole screen tested about 18,000 reagents; below is a random part of them. Of all reagents, 450 (2.5%) got an active call. 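Single biological run; no consistent viability z cut-off exists, so the class columns, not z-scores, define the calls.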

- Aim: 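Knock-downs lowering viability or raising caspase 3/7 activity in vorinostat-treated resistant cells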 (primary screen)
- Cell system: human HCT116-VR colon cancer cells, selected for vorinostat resistance
- Reagent: siRNA pool against human genes, 40 nM siRNA pool
- Time to read-out: vorinostat for 24 h, read-out about 72 h after transfection
- Treatment: vorinostat at 2.5 µM final
- Read-out: 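Cell viability by CellTiter-Fluor and caspase 3/7 activity by luminescence, each scaled to mock wells per plate, duplicates averaged, then robust z-scored over all plates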
- Scale: viability robust z-score: higher = more viable cells than screen typical; caspase robust z-score: higher = more caspase 3/7 activity than screen typical
- Active means: 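Hits are knock-downs in viability class RV1/RV2 or caspase class CA1/CA2, excluding ones that killed cells in the no-drug cell-count arm; hits then retested with single siRNAs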

gene	viability hit class	caspase hit class	viability robust z-score	caspase robust z-score	activity call
SNAI3	no change	no change	-2.12	0.28	inactive
TMEM145	no change	no change	0.02	0.58	inactive
LRRC34	no change	no change	-1.36	-0.57	inactive
KLK7	no change	no change	-0.82	2.3	inactive
PPP5C	no change	no change	0.11	-0.02	inactive
SLX4	no change	no change	0.06	0.08	inactive
SHISA4	no change	no change	-0.64	-0.76	inactive
GTF3C5	no change	no change	1.88	0.98	inactive
MKNK2	no change	no change	-1.08	0.54	inactive
PLD5	no change	no change	0.45	-0.01	inactive
SP6	no change	no change	-1.25	-0.21	inactive
GGNBP2	no change	no change	-0.1	-0.81	inactive
EPC2	no change	no change	-0.2	0.11	inactive
CYREN	no change	no change	1.05	-0.76	inactive
CD164	no change	no change	0.14	0.26	inactive
PIF1	no change	no change	0.06	0.76	inactive
NPPA	no change	no change	-0.22	0.02	inactive
CXCR6	no change	no change	0.54	-0.14	inactive
DNAJA1	no change	no change	-1.18	-0.47	inactive
NACA	no change	no change	-1.27	1.21	inactive
BTAF1	no change	no change	-0.21	-0.04	inactive
RNF185	no change	no change	-0.45	-0.74	inactive
ATRNL1	no change	no change	-0.06	-0.6	inactive

An excerpt taken from the entries so far, as a working copy:
gene	viability hit class	caspase hit class	viability robust z-score	caspase robust z-score	activity call
GGNBP2	no change	no change	-0.1	-0.81	inactive
EPC2	no change	no change	-0.2	0.11	inactive
CYREN	no change	no change	1.05	-0.76	inactive
CD164	no change	no change	0.14	0.26	inactive
